Laboratory results as given in publication PMC5547076.
Results are given in words; binding and its absence hold for the method and conditions named. Some results given as binding are weak or reduced against the parent protein; the word gives no strength.

Protein sequences, listed by entry. Tags and fused reporters are not part of them. Lines headed by an entry give the natural chain unless they say otherwise; changes in a name come on top. Chains listed by the source or under a name are the forms on record and can include a tag or linker. Residues count along the entry.
GST-EZH2(501–751) (Q15910, residues 496-746): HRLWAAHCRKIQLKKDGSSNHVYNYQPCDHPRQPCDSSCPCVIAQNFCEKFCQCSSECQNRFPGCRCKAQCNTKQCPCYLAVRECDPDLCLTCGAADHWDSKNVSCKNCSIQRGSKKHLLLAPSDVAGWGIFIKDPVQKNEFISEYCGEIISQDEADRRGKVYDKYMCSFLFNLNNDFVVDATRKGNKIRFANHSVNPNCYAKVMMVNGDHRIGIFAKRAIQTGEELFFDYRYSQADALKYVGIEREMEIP
GST-EZH2(1–500) (Q15910, form named): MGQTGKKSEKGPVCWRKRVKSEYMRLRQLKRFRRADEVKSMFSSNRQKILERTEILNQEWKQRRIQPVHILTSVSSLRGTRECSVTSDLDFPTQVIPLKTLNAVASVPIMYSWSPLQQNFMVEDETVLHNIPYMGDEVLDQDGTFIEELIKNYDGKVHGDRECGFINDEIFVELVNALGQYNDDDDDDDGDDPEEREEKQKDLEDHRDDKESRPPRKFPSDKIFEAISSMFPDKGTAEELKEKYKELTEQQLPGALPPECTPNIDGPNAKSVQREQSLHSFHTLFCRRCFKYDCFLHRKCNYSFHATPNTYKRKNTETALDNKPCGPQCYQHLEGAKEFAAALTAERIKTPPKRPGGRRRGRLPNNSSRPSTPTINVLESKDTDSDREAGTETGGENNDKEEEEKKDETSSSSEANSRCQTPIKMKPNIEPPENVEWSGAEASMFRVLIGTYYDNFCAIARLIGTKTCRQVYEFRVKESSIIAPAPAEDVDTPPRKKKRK
GST-EZH2 (Q15910, form named): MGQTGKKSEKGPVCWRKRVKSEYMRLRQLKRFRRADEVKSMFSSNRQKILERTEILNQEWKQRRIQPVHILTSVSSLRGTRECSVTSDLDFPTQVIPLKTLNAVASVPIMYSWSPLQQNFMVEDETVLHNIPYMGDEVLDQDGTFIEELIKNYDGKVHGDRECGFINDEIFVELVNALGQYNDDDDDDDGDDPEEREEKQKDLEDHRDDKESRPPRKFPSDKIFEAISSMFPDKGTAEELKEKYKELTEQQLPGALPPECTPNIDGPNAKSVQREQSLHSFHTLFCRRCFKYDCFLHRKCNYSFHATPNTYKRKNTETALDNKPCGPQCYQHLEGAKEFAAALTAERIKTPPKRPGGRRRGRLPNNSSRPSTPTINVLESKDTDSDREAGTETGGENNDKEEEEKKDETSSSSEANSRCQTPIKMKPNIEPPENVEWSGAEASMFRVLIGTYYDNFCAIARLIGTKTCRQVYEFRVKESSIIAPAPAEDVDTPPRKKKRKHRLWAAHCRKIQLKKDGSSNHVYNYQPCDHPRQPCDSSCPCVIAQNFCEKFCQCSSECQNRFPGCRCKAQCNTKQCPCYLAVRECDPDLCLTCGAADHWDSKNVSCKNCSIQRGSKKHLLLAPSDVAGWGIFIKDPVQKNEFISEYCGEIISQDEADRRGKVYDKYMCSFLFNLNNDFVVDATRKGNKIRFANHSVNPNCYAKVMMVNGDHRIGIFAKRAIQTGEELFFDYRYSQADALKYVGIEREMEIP
UniProt P15941, residues 1182-1255: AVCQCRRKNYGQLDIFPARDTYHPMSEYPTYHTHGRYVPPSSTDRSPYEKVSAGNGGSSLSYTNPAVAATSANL

Legend:
Assay in all cases: pull-down; GST fusion proteins bound to glutathione beads incubated with purified MUC1-CD proteins, washed; adsorbates immunoblotted with anti-MUC1-C cytoplasmic domain antibodies CD1 or CT2; both purified
GST-EZH2(1–500) (human) = GST-EZH2(1–500) (human) (UniProt Q15910)
[1] = biological target: GST-EZH2(501–751) (human) (UniProt Q15910)
GST-EZH2 (human) = GST-EZH2 (human) (UniProt Q15910)

**Q.** What does the source list for “MUC1-C cytoplasmic domain (from UniProt P15941 1182-1255) (domain or fragment)”?
**A.** binding (GST-EZH2(1–500) (human)): no binding; binding [1]: binds; binding (GST-EZH2 (human)): binds
